{"source": "PubChem BioAssay AID504444", "about": "(National Center for Advancing Translational Sciences (NCATS), 2011)", "note": "Out of some 360,000 compounds screened, about 7,500 (2.1%) were called active. The shares of active, inactive and inconclusive entries below differ from those in the screen. The call rests on the fitted dose curve; in most records, active means well fitted inhibition curve with a large enough effect; inconclusive means small, poorly fitted or top-dose-only effect, or effect the other way; inactive means flat fitted curve, though single readings scatter. Potencies of inconclusive entries are doubtful fits and often do not repeat. On the % scale 0 is the no-effect control and ±100 the full control effect; potency means the concentration at half of the fitted maximal effect."}
{"assay": "Nrf2 qHTS screen for inhibitors; further: nearly all actives have a fitted effect of over 60% in size", "details": "A549 ARE-Fluc reporter, luciferase luminescence, 18-24 h; activity change, negative = inhibition: at 46 µM (top of the series)", "in_short": "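Reporter: ARE-Fluc in A549. Exposure: 18-24 h, 37 °C, 5% CO2, 5% FBS OPTI-MEM. Readouts: fluorescent cytotoxicity (CellTiter-Fluor), then luminescent Nrf2 signal after BugLite.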"}
{"compound": "CCOC(=O)c1ccccc1NC(=O)c1sc2ncn(CC)c(=O)c2c1C", "activity change, negative = inhibition": "inactive: 8.54%"}
{"compound": "CC(/C=N/NC(=O)C(O)c1ccccc1)=C\\c1ccccc1", "note": "(stereo not given)", "Potency": "inconclusive: 20.6 µM [activator, single point]"}
{"compound": "COc1cc(/C=C(\\C#N)c2nc3ccccc3[nH]2)c([N+](=O)[O-])cc1OCc1ccccc1", "Potency": "inconclusive: 23.1 µM [falling, single point]"}
{"compound": "CC(C)(C)NC(=O)CCN(/N=C/c1ccccc1O)C1=NS(=O)(=O)c2ccccc21", "Potency": "inconclusive: 13 µM [falling, partial curve, poor fit]"}
{"compound": "N#Cc1c(-c2ccc(Cl)cc2)ccn2nc(C3CCCCC3)nc12", "Potency": "inconclusive: 1.84 µM [activator, full curve]"}
{"compound": "CC(c1ccc(F)cc1)n1c(-c2ccc3ccccc3n2)n[nH]c1=S", "note": "(stereo not given)", "Potency": "inconclusive: 16.4 µM [falling, partial curve]"}
{"compound": "O=C(Cn1c(SCCOc2ccccc2Cl)nc2ccccc21)N1CCCCC1", "Potency": "inconclusive: 29.1 µM [falling, single point]"}
{"compound": "COC(=O)C1CN(C(=O)COc2ccc(Cl)cc2Cl)c2ccccc2O1", "note": "(stereo not given)", "activity change, negative = inhibition": "inactive: -13.3%"}
{"compound": "Cc1ccc(C)c(-n2ccnc2SCC(=O)c2c(N)n(C3CC3)c(=O)[nH]c2=O)c1", "Potency": "inconclusive: 1.64 µM [falling, full curve, poor fit]"}
{"compound": "CN(C)S(=O)(=O)c1cccc(NC(=O)CCCSc2ccccc2)c1", "Potency": "inconclusive: 20.6 µM [falling, single point]"}
{"compound": "Cc1c(S(=O)(=O)c2ccccn2)c(N)n(Cc2cccc(Cl)c2)c1C", "activity change, negative = inhibition": "inactive: 0%"}
{"compound": "COc1ccc(OCc2cc(C(=O)N3CCCCCCC3)no2)c(Cl)c1", "Potency": "inconclusive: 18.4 µM [activator, partial curve]"}
{"compound": "COc1ccc(-n2c(=S)[nH]c3cc(C(=O)NCc4ccccc4OC)ccc3c2=O)c(OC)c1", "Potency": "inconclusive: 18.4 µM [falling, single point]"}
{"compound": "COCC(C)NC(=O)COc1ccc(Cl)cc1Cl", "note": "(stereo not given)", "Potency": "inconclusive: 32.6 µM [falling, partial curve, poor fit]"}
{"compound": "CCC(=O)NC(=S)Nc1ccc2oc(-c3ccc(OC)cc3)nc2c1", "Potency": "inconclusive: 3.26 µM [activator, full curve, poor fit]"}
{"compound": "COc1ccccc1C(=O)Nc1ccccc1OCc1cc(=O)n2cc(C)sc2n1", "activity change, negative = inhibition": "inactive: 6.25%"}
{"compound": "CCOc1cccc(C(=O)N(Cc2ccc(C(C)C)cc2)C2CCS(=O)(=O)C2)c1", "note": "(stereo not given)", "Potency": "inconclusive: 32.6 µM [falling, single point]"}
{"compound": "O=C(c1ccc(Br)o1)N1N=C(c2ccc(Cl)cc2)CC1c1ccco1", "note": "(stereo not given)", "Potency": "inconclusive: 20.6 µM [falling, single point]"}
{"compound": "S=C(Nc1ccc2c(c1)OCCO2)Nc1ccc2c(c1)OCO2", "activity change, negative = inhibition": "inactive: 8.21%"}
{"compound": "C=C(C)C1CC=C(C)/C(=N/NC(=O)c2ccccc2[N+](=O)[O-])C1", "note": "(stereo not given)", "Potency": "inconclusive: 20.6 µM [falling, single point]"}
{"compound": "Cc1ccc(S(=O)(=O)N2CCN(CC(=O)NC3CCCc4ccccc43)CC2)cc1C", "note": "(stereo not given)", "Potency": "inconclusive: 20.6 µM [falling, partial curve]"}
{"compound": "COc1ccc(C2CC(=O)c3cnc(NC(=O)c4ccccc4)nc3C2)c(OC)c1", "note": "(stereo not given)", "Potency": "inconclusive: 32.6 µM [falling, single point]"}
{"compound": "Cc1ccc(S(=O)(=O)CCC(=O)c2ccc(F)cc2)cc1", "activity change, negative = inhibition": "inactive: 1.52%"}
{"compound": "Oc1ccccc1-c1nc(NC2CCCC2)c2ccccc2n1", "activity change, negative = inhibition": "inactive: -15.6%"}
{"compound": "Cc1cc(C)nc(Nc2n[nH]c(COc3ccc(Cl)cc3)n2)n1", "Potency": "inconclusive: 10.3 µM [falling, partial curve]"}
{"compound": "O=C(CCNC(=O)c1ccccc1Cl)Nc1nc2ccccc2s1", "Potency": "inconclusive: 9.2 µM [activator, partial curve, poor fit]"}
{"compound": "N#CN1CCC(NS(=O)(=O)c2ccc(C(F)(F)F)cc2)CC1", "Potency": "inactive"}
{"compound": "CC(=O)Oc1ccc(C(=O)Nc2ccc(C3(C#N)CCCC3)cc2)cc1", "Potency": "inconclusive: 6.51 µM [activator, single point]"}
{"compound": "CCCSc1nnc(NC(=O)c2cc(=O)c3ccccc3o2)s1", "activity change, negative = inhibition": "inactive: 2.79%"}
{"compound": "COc1ccc(-c2nc3c(c(=O)[nH]c(=O)n3Cc3ccccc3)n2Cc2ccccc2)cc1", "Potency": "active: 14.6 µM"}
{"compound": "COc1ccc(S(=O)(=O)N(CCc2ccccc2)CC(=O)Nc2cc(Cl)ccc2C)cc1", "Potency": "inconclusive: 16.4 µM [falling, single point]"}
{"compound": "O=C(CC(=O)c1ccccc1)Nc1ccc(Cl)cc1", "Potency": "inconclusive: 10.3 µM [activator, partial curve]"}
{"compound": "COc1cccc(N/C(SCc2cccc([N+](=O)[O-])c2)=C(/C#N)C(N)=O)c1", "Potency": "inconclusive: 32.6 µM [activator, single point]"}
{"compound": "Cc1ccc(NS(=O)(=O)c2cccc3cccnc23)c(Br)c1", "Potency": "inconclusive: 20.6 µM [falling, single point]"}
{"compound": "Cc1ccccc1OCCC(=O)Nc1ccc(Cl)cc1F", "Potency": "inconclusive: 1.16 µM [falling, partial curve, poor fit]"}
{"compound": "CC12CCC(C/C1=N\\N=C1\\NC(=O)/C(=C\\c3cccc(Br)c3)S1)C2(C)C", "note": "(stereo not given)", "Potency": "active: 18.4 µM"}
{"compound": "NC(N)=NS(=O)(=O)c1ccc(NC(=S)NC(=O)c2ccc3c(c2)OCO3)cc1", "Potency": "inconclusive: 20.6 µM [activator, partial curve, poor fit]"}
{"compound": "O=C(Nn1c(Cc2cccs2)nc2ccccc2c1=O)c1ccc(F)c(F)c1", "Potency": "inconclusive: 29.1 µM [activator, single point]"}
{"compound": "O=C(NNC1=NCCCCC1)Nc1cccc(Cl)c1", "Potency": "inconclusive: 18.4 µM [activator, partial curve]"}
{"compound": "Cc1ccc(S(=O)(=O)NCc2ccncc2)cc1", "Potency": "active: 2.59 µM"}
{"compound": "COc1ccc(/C=N/N=C(\\N)c2nonc2N)cc1OC", "Potency": "inconclusive: 25.9 µM [activator, single point]"}
{"compound": "Cc1ccc(S(=O)(=O)N2CCC(CN3C(=O)c4cccc5cccc(c45)C3=O)CC2)cc1", "Potency": "inconclusive: 29.1 µM [falling, single point]"}
{"compound": "Cc1nn(C)c2c1c(C(F)(F)F)cc(=O)n2CC(=O)Nc1ccc(F)cc1F", "Potency": "inconclusive: 29.1 µM [falling, single point]"}
{"compound": "Cc1ccc(C(=O)N/N=C\\c2ccc([N+](=O)[O-])s2)cn1", "Potency": "inconclusive: 1.64 µM [falling, full curve, poor fit]"}
{"compound": "O=C(C1=C[C@H](c2ccc(C(F)(F)F)cc2)C[C@H](OCCCCO)O1)N1CCN(Cc2ccc3c(c2)OCO3)CC1", "Potency": "inconclusive: 14.6 µM [falling, partial curve, poor fit]"}
{"compound": "CCC(C)n1c(SCC(=O)Nc2cc(C(C)(C)C)nn2-c2ccccc2)nc2ccccc2c1=O", "note": "(stereo not given)", "Potency": "inconclusive: 20.6 µM [falling, partial curve]"}
{"compound": "Cc1ccc(-c2noc(-c3ccccc3OCC(=O)Nc3ccccc3[N+](=O)[O-])n2)cc1", "Potency": "inconclusive: 20.6 µM [falling, single point]"}
{"compound": "O=C(COc1nsnc1N1CCOCC1)Nc1ccc(Br)cc1", "Potency": "inconclusive: 25.9 µM [falling, single point]"}
{"compound": "CCSc1nnc2c3cc(CC)ccc3n(C)c2n1", "Potency": "inconclusive: 16.4 µM [activator, partial curve]"}
{"compound": "CCOC(=O)c1[nH]c(C)c(C(=O)Nc2cc(Cl)ccc2C)c1C", "Potency": "inconclusive: 0.231 µM [falling, full curve]"}
{"compound": "N#CC1=C(N)OC2=C(C(=O)CCC2)C1c1cc2c(cc1Br)OCO2", "note": "(stereo not given)", "Potency": "inconclusive: 32.6 µM [activator, partial curve, poor fit]"}
{"compound": "COc1ccc(NC(=O)CC2C(=O)N(CCc3ccccc3)C(=S)N2Cc2cccnc2)cc1", "note": "(stereo not given)", "Potency": "inconclusive: 29.1 µM [falling, single point]"}
{"compound": "CCc1ccc(CNC(=O)c2ccc(Cn3c(=O)c4cccn4c4cccnc43)cc2)cc1", "activity change, negative = inhibition": "inactive: 11.1%"}
{"compound": "Brc1ccc(-c2nn3c(-c4ccco4)nnc3s2)o1", "activity change, negative = inhibition": "inactive: -7.91%"}
{"compound": "COC(=O)c1cc(C(=O)c2cc(F)ccc2O)cn2c(=O)c3c(C)c(C)sc3nc12", "Potency": "inconclusive: 29.1 µM [falling, single point]"}
{"compound": "CCCc1nnc(NC(=O)CSc2nnc3c4ccccc4n(CC)c3n2)s1", "Potency": "inconclusive: 20.6 µM [falling, partial curve, poor fit]"}
{"compound": "COc1ccc(NS(=O)(=O)c2cccc(Cl)c2)cc1S(=O)(=O)N1CCCCC1", "Potency": "inconclusive: 32.6 µM [falling, partial curve, poor fit]"}
{"compound": "Cc1cc(C)c(NC(=O)C(C)n2nc(C)c3sc4ccccc4c3c2=O)c(C)c1", "note": "(stereo not given)", "Potency": "inconclusive: 11.6 µM [activator, partial curve]"}
{"compound": "Cc1nc2ccc(NC(=O)c3cc(S(=O)(=O)N(C)c4ccccc4)ccc3Cl)cc2s1", "Potency": "active: 5.17 µM"}
{"compound": "O=C(Nc1ccc2c(c1)OCCO2)c1cncc(Br)c1", "Potency": "inconclusive: 0.411 µM [activator, full curve, poor fit]"}
{"compound": "O=C(NCc1ccccn1)c1cc(-c2ccc(-c3ccccc3)cc2)nc2ccccc12", "Potency": "inconclusive: 3.66 µM [activator, full curve]"}
{"compound": "COc1ccc(C(C)(C)C)cc1NC(=O)CCNC(=O)c1ccco1", "Potency": "inconclusive: 25.9 µM [falling, single point]"}
{"compound": "Cc1cc(F)ccc1NC(=O)C1CCCN(C(=O)c2cnn(-c3ccccc3)c2-n2cccc2)C1", "note": "(stereo not given)", "Potency": "inconclusive: 18.4 µM [falling, single point]"}
{"compound": "Cc1ccc(OC(C)C(=O)N2CCN(CCc3ccccn3)CC2)cc1C", "note": "(stereo not given)", "activity change, negative = inhibition": "inactive: 11.5%"}
{"compound": "O=C(Nc1cccc2cccnc12)c1ccc(Cl)cc1Cl", "Potency": "inconclusive: 10.3 µM [activator, partial curve]"}
